PubChem BioAssay AID504804 – Drosophila RNAi Screening Center | 2011

Aim: 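Fly genes whose loss lessens doxorubicin-driven cell death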 (primary screen)
System: Drosophila Kc cells
Reagents: long dsRNA against Drosophila genes, 0.5 µg dsRNA per well
Timing: 96 h (48 h knock-down, then 48 h drug)
Challenge: doxorubicin 5 µg/ml for 48 h, added 48 h after dsRNA
Read-out: 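Viability measured as cellular ATP by luminescence after 48 h knock-down then 48 h doxorubicin at 5 µg/ml; unnormalised plate counts for each replicate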
Scale: raw ATP luminescence: higher = more viable cells, protection from doxorubicin
Hit rule: 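z-score of 2 or more over plate mean in both duplicates, retained only when retests and separate dsRNAs confirm the protection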
The deposit covers about 19,000 reagents; below is an unselected part of those that have a named target and a result. Over the whole deposit, 47 (0.25%) are marked active. 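Signals are raw, not normalised; exact z-scores behind calls not deposited; actives needed confirmation, so some wells reaching 2 SD are inactive.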 Entries without a mark were called inactive. A plus sign joins genes that one reagent is predicted to hit. Reagent sequences are not shown.

gene | DRSC id | raw ATP luminescence, replicate 1 | raw ATP luminescence, replicate 2
CG13501 | DRSC04146 | 55660 | 56740
CG9426 | DRSC03219 | 39673 | 47420
nod (no distributive disjunction) | DRSC18900 | 2.07e5 | 2.18e5
ND-B14 (NADH dehydrogenase (ubiquinone) B14 subunit) | DRSC07029 | 31867 | 67683
Ref2 (RNA and export factor binding protein 2) | DRSC02563 | 59140 | 78623
bsk (basket) | DRSC03499 | 98527 | 55430
CG18528 | DRSC15340 | 49900 | 48680
CG9008 | DRSC01889 | 75870 | 66133
PGRP-LD + Cralbp + Pmi | DRSC09743 | 67913 | 80133
mRpL28 (mitochondrial ribosomal protein L28) | DRSC02724 | 23830 | 36627
Rpt1 (Regulatory particle triple-A ATPase 1) | DRSC07542 | 46233 | 49707
CG43672 | DRSC19452 | 4.45e5 | 3.46e5
CG43672 | DRSC20108 | 3.50e5 | 3.22e5
CG12655 | DRSC20678 | 4.34e5 | 3.77e5
TfIIFbeta (Transcription factor TFIIFbeta) | DRSC16884 | 49060 | 49163
CG17544 | DRSC02624 | 1.19e5 | 70407
Lcp65Aa | DRSC11209 | 86533 | 83220
CG8745 | DRSC11033 | 19977 | 21560
CG8745 | DRSC11034 | 70293 | 65280
und (uninitiated) | DRSC03629 | 99563 | 63017
Pdh (Photoreceptor dehydrogenase) | DRSC11249 | 20987 | 26253
CG8560 | DRSC10994 | 33767 | 31943
CG15333 | DRSC18016 | 28210 | 39190
CG15333 | DRSC18153 | 27230 | 35480
Ir41a (Ionotropic receptor 41a) | DRSC04730 | 85407 | 88123
Ir41a (Ionotropic receptor 41a) | DRSC04875 | 43280 | 48527
Srrm1 (Serine-arginine repetitive matrix 1) | DRSC09835 | 83163 | 70387
Leash | DRSC15617 | 46157 | 46267
SMC6 (Structural maintenance of chromosomes 6) | DRSC15829 | 96610 | 91110
Tsr1 (Tsr1 ribosome assembly factor) | DRSC11821 | 19837 | 22713
CG42490 (retired record) | DRSC01649 | 2.42e5 | 2.28e5
CG33225 | DRSC03881 | 69837 | 48787
CG15873 | DRSC04277 | 44350 | 41073
Gk2 (Glycerol kinase 2) | DRSC08610 | 63153 | 61150
S-Lap3 (Sperm-Leucylaminopeptidase 3) | DRSC10956 | 33007 | 45533
Bap170 (Brahma associated protein 170kD) | DRSC04964 | 65913 | 55247
CG30158 | DRSC04956 | 98833 | 80407
CG30158 | DRSC04974 | 53527 | 71867
CG30158 | DRSC04975 | 47430 | 91910
CG30158 | DRSC05012 | 46380 | 98457
CG5913 | DRSC15916 | 57010 | 63190
CG14762 | DRSC05073 | 92643 | 76237
CG14762 | DRSC06496 | 40440 | 61067
CG33170 | DRSC11854 | 60337 | 59097
mRpL44 (mitochondrial ribosomal protein L44) | DRSC12306 | 51073 | 26407
CG3328 | DRSC04357 | 68587 | 62147
CG17202 | DRSC15194 | 38837 | 39483
CG17777 | DRSC18137 | 52550 | 94180
CG9259 | DRSC03174 | 61343 | 57430
upSET | DRSC11051 | 12873 | 11097
CG15423 | DRSC00437 | 28623 | 43747
CG14419 | DRSC17916 | 63300 | 60300
CG33270 | DRSC10584 | 82003 | 48340
CG6418 | DRSC10633 | 46053 | 71143
eIF3g2 (eukaryotic translation initiation factor 3 subunit g2) | DRSC14275 | 73280 | 79160
CG15200 | DRSC19647 | 3.29e5 | 3.71e5
TpnC4 (Troponin C isoform 4) | DRSC04856 | 49460 | 58517

A few values from the list:
Result of CG3328 [DRSC04357] in “raw ATP luminescence, replicate 1”: 68587
Result of TpnC4 (Troponin C isoform 4) [DRSC04856] in “raw ATP luminescence, replicate 1”: 49460
CG30158 [DRSC04956], raw ATP luminescence, replicate 1: 98833
CG14762 [DRSC06496], raw ATP luminescence, replicate 1: 40440
For “raw ATP luminescence, replicate 1”, eIF3g2 (eukaryotic translation initiation factor 3 subunit g2) [DRSC14275] reads 73280
Ir41a (Ionotropic receptor 41a) [DRSC04875], raw ATP luminescence, replicate 2 → 48527
